# Test results published in the supplement of paper PMC8256030.
# Values joined by “and” are separate entries in the source; they are usually repeats but may differ in a detail not shown here. Equal entries are not always repeated. Some of the results follow. This data set is noisy: repeats of one test often differ as much as different tests do.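 HEK293T cells were given each compound shortly before transfection with a reporter in which red mCherry is followed by the SARS-CoV-2 frameshift element and then GFP in the −1 frame, so GFP appears only after frameshifting.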
# Columns and labels:
# [1] = system: SARS-CoV-2 -1 PRF reporter mCherry-FSE-GFP(-1); assay: mCherry (red) intensity as percent of control; higher = higher upstream reporter expression; details: 10 µM; 24 h; HEK293T
# [2] = system: SARS-CoV-2 -1 PRF reporter mCherry-FSE-GFP(-1); assay: percent effect, decrease of GFP/mCherry ratio (-1 PRF reporter) relative to controls; higher = stronger frameshift inhibition; details: 10 µM; 24 h; HEK293T
SMILES,mCherry [1],percent effect [2]
O=C1CC[C@@H](C(=O)O)N1 [pidolic acid],96.9%,-3.48%
CC1(C)[C@@H](O)CC[C@]2(C)[C@H]3C(=O)C=C4[C@@H]5C[C@@](C)(C(=O)O)CC[C@]5(C)CC[C@@]4(C)[C@]3(C)CC[C@@H]12,49.1%,-3.64%
S=C1SCN(Cc2ccccc2)CN1Cc1ccccc1,75.2%,-2.13%
NC12CC3CC(CC(C3)C1)C2 [amantadine],115%,-2.27%
CCC1(c2ccccc2)NC(=O)N(C)C1=O (stereo not given) [mephenytoin],84.3%,-5.28%
CC(C)N(CCC(CCN1CCCCC1)(C(N)=O)c1ccccc1Cl)C(C)C (stereo not given) [disobutamide],78%,-5.19%
CCOc1ccccc1OCCN[C@H](C)Cc1ccc(OC)c(S(N)(=O)=O)c1 [tamsulosin],93.4% and 102%,-1.16% and -13.1%
O=C1C[C@@]2(C(=O)N1)C(=O)N(Cc1ccc(Br)cc1F)C(=O)c1cccn12 [ranirestat],112%,-3.85%
CC(=O)Nc1nnc(S(N)(=O)=O)s1 [acetazolamide],114%,-0.64%
Cc1cc(CC(=O)O)c(C)n1-c1ccc(Cl)cc1 [clopirac],123%,-0.457%
NC[C@H]1O[C@H](O[C@H]2[C@H](O)[C@@H](O[C@H]3O[C@H](CO)[C@@H](O)[C@H](N)[C@H]3O)[C@H](N)C[C@@H]2N)[C@H](N)[C@@H](O)[C@@H]1O [bekanamycin],110%,-5.92%
Nc1ccn([C@H]2CO[C@@H](CO)S2)c(=O)n1 [apricitabine],88.8%,-4.59%
c1ccc(C2CN3CCSC3=N2)cc1 (stereo not given) [tetramisole],101%,-1.78%
O=C(O)Cc1ccc(CCNS(=O)(=O)c2ccc(Cl)cc2)cc1 [daltroban],78%,-10.8%
CC(C)[C@H](N)C(=O)O [valine],86.1%,-0.513%

# Already shown: an excerpt of the list.
SMILES,mCherry [1],percent effect [2]
CC(=O)Nc1nnc(S(N)(=O)=O)s1 [acetazolamide],114%,-0.64%
Cc1cc(CC(=O)O)c(C)n1-c1ccc(Cl)cc1 [clopirac],123%,-0.457%
